From PubChem BioAssay AID2685 (National Center for Advancing Translational Sciences (NCATS), 2010)
The other results are listed elsewhere or left out. Shown are side measurements of this screen, not its main read-out; they come without a call. Compounds called inactive in the main read-out are mostly missing here. Words in brackets tell the shape of the fitted curve; partial curves, single points and poor fits give uncertain potencies.

Assay: qHTS Assay for Lipid Storage Modulators in Drosophila S3 Cells;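 for cell number change: cells counted by Cell Tracker Red CMTPX staining in the red channel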
Details: BODIPY lipid droplet fluorescence, 18-24 h; for cell number change: measured here: cell count max response, cells fed with added oleic acid
In short: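 Laser-scanning cytometry quantifies lipid droplet accumulation (500–530 nm total intensity; droplet/cell object ratio) in oleic acid-fed (400 uM added) Drosophila S3 cells treated with a concentration series. 20 uM Triacsin C defined 100% inhibition.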

[1] = measured here: lipid fluorescence (Fed channel) AC50, cells fed with added oleic acid
[2] = measured here: cell number channel AC50, cells fed with added oleic acid

Structure (SMILES)	cell number change [%]	AC50 [1]	AC50 [2]
CCO[C@H]1OC(C(=O)NC2CC2)=C[C@@H](c2coc3ccccc3c2=O)[C@@H]1CCCO	-0.23	0.731 µM [falling, single point]	–
c1ccc(-c2nn3c(Cn4cnc5ccccc54)nnc3s2)cc1	–	0.731 µM [rising, single point]	2.31 µM [rising, partial curve]
COc1ccc(/C=N\NC(=O)c2ccccc2Br)cc1COc1ccccc1	-8.65	29.1 µM [falling, single point]	–
Cc1cc(C)c2nc(N3C(=O)C(O)=C(C(=O)c4ccco4)C3c3cccc(O)c3)sc2c1 (stereo unspecified)	-33.3	29.1 µM [falling, single point]	32.6 µM [falling, single point]
CCCCP(=O)(CCCC)c1ccccc1C(=O)O	7.86	0.651 µM [rising, full curve, poor fit]	–
Cn1nnnc1Sc1ncnc2scc(-c3ccc([N+](=O)[O-])cc3)c12	-36.6	0.58 µM [falling, partial curve, poor fit]	8.2 µM [falling, partial curve]
COc1ccc(-c2cc(C(=O)NCCCn3ccnc3)no2)cc1OC	5.73	–	0.82 µM [rising, partial curve]
COCc1ccc(O)c2ncccc12	1.05	–	–
CC(c1ccccn1)N(C)C(=O)c1ccc2nc(Cc3ccccc3F)oc2c1 (stereo unspecified)	-10.4	0.731 µM [rising, partial curve, poor fit]	–
CC(=O)c1ccc(Nc2nc3ccccc3nc2NS(=O)(=O)c2cccs2)cc1	-17.7	3.26 µM [falling, partial curve]	–
Cc1ccccc1NC(=O)NNC(=O)COc1ccc2ccccc2c1	-26.9	–	–
COc1ccc(/C=C2\SC(=S)N(CC(=O)OCC(=O)Nc3ccc([N+](=O)[O-])cc3OC)C2=O)cc1	18.2	2.31 µM [rising, full curve, poor fit]	6.51 µM [rising, single point]
FC(F)(F)c1cccc(N2CCN(C(=S)NC3CCCCC3)CC2)c1	7.92	0.0731 µM [rising, full curve, poor fit]	–
S=c1nc(C23CC4CC(CC(C4)C2)C3)[nH][nH]1	23.5	6.51 µM [rising, single point]	–
CCOc1ccc(S(=O)(=O)N2CCC(C(=O)NC3CCCCC3)CC2)cc1	29.5	20.6 µM [rising, partial curve]	–
CSc1cc(C)n(-c2ccccc2C)c(=S)c1C(C)=O	–	18.4 µM [falling, partial curve]	–
Cc1ccc2c(C)c(C(=O)N3CCN(Cc4ccc5c(c4)OCO5)CC3)oc2c1C	-0.763	–	–
O=C1OCC2=C1C(c1ccc(F)cc1)Sc1ccccc1N2 (stereo unspecified)	-56.2	–	14.6 µM [falling, single point]
Oc1c(C(c2cccs2)N2CCN(c3ccccc3)CC2)ccc2cccnc12 (stereo unspecified)	15.3	–	0.146 µM [falling, full curve, poor fit]
Cc1cc(C(=O)OCC(=O)NC(C)(C)C)c2ccccc2n1	-7.87	–	0.92 µM [rising, partial curve]

Single records, from the list above:
Cc1cc(C)c2nc(N3C(=O)C(O)=C(C(=O)c4ccco4)C3c3cccc(O)c3)sc2c1 (stereo unspecified) is listed with cell number change [%]: -33.3; AC50 [1]: 29.1 µM [falling, single point]; AC50 [2]: 32.6 µM [falling, single point]
Cc1cc(C(=O)OCC(=O)NC(C)(C)C)c2ccccc2n1 is listed with cell number change [%]: -7.87; AC50 [2]: 0.92 µM [rising, partial curve]
COc1ccc(-c2cc(C(=O)NCCCn3ccnc3)no2)cc1OC is listed with cell number change [%]: 5.73; AC50 [2]: 0.82 µM [rising, partial curve]

Further compounds.

Structure (SMILES)	cell number change [%]	AC50 [1]	AC50 [2]
O=S(=O)(NCc1ccccc1)NCc1ccccc1F	-28.9	–	0.116 µM [falling, full curve]
CCN(CC)C(=S)NC(=O)c1ccc(OC)c(Br)c1	6	18.4 µM [rising, single point]	–
Cc1nc(SCC(=O)NCc2ccccc2)c2c(=O)n(C)c(=O)n(C)c2n1	–	0.58 µM [rising, single point]	0.731 µM [rising, single point]
Cc1no[n+]([O-])c1COc1ccccc1/C=C1\NC(=S)NC1=O	70.3	6.51 µM [rising, single point]	8.2 µM [rising, partial curve]
O=C(c1ccccc1Oc1ccccc1)N1CCN(c2ccccc2F)CC1	–	6.51 µM [rising, partial curve]	2.91 µM [rising, single point]
Cc1cc2c(c(=O)n1CCc1ccccc1)C(c1ccco1)C(C#N)=C(N)O2 (stereo unspecified)	63.4	1.3 µM [rising, full curve]	0.517 µM [rising, full curve, poor fit]
O=C1c2ccccc2C(=O)c2c(NCc3cccnc3)cccc21	-3.31	–	–
O=C(CS(=O)(=O)c1ccc(F)cc1)N1CCN(c2ccccc2)CC1	40.7	–	14.6 µM [rising, single point]
CC(=O)c1cccc(NC(=O)COC(=O)CCc2ccc(S(=O)(=O)N3CCOCC3)cc2)c1	-6.83	–	–
Cc1ccc(OCC(=O)N(C)CC(=O)NCc2ccco2)c(Br)c1	26.9	–	–
OCCc1c[nH]c2ccc(OCc3ccccc3)cc12	-38.1	3.26 µM [falling, full curve, poor fit]	9.2 µM [falling, partial curve, poor fit]
CC(C(=O)NCCC1=CCCCC1)c1ccc([N+](=O)[O-])cc1 (stereo unspecified)	-31.6	18.4 µM [falling, single point]	0.058 µM [falling, full curve]
CCOc1ccc(N2C(=O)c3ccc(C(=O)OCc4c(C)noc4C)cc3C2=O)cc1	3	–	–
CCCc1ccc(S(=O)(=O)N2CCN(Cc3ccco3)CC2)cc1	-13.3	23.1 µM [rising, single point]	–
COc1ccccc1CNC(=O)C(CC(C)C)NC(=O)C1CCC(C)CC1 (stereo unspecified)	-33.9	4.11 µM [falling, single point]	2.31 µM [falling, full curve, poor fit]
O=S(=O)(NCC1CCCO1)c1ccc(-c2ccc(S(=O)(=O)NCC3CCCO3)cc2)cc1 (stereo unspecified)	-39.6	16.4 µM [falling, single point]	13 µM [falling, single point]
O=C1/C(=C\c2cc(Br)cc(Br)c2O)SC(=S)N1Cc1ccccc1	-28.2	1.84 µM [falling, partial curve, poor fit]	2.31 µM [falling, full curve, poor fit]
COc1ccc(Nc2nc(-c3ccccc3)c3ccccc3n2)cc1	6.96	2.91 µM [rising, full curve, poor fit]	–
COc1ccc(S(=O)(=O)Nc2ccccc2C)cc1	60.2	16.4 µM [rising, partial curve]	14.6 µM [rising, partial curve]
CCOC(=O)c1ccccc1NC(=O)CN(c1cccc(OC)c1)S(C)(=O)=O	-36.6	29.1 µM [falling, single point]	1.84 µM [falling, partial curve, poor fit]

Structure (SMILES)	cell number change [%]	AC50 [1]	AC50 [2]
Cc1cccc(NC(=O)[C@H](Cc2c[nH]c3ccccc23)NC(=O)[C@@H]2Cc3ccccc3CN2)c1	1.01	3.66 µM [falling, full curve]	–
COc1cc(NC(C)CCCN)c2ncccc2c1 (stereo unspecified)	28.7	29.1 µM [falling, single point]	–
Cc1ccc(NC(=O)CSc2ccc3c(c2)OCCO3)nc1	-18.7	0.651 µM [falling, single point]	–
COc1ccc(/C=N/NC(=O)CN2CCCCCCC2)c(C)c1C	-5.1	0.651 µM [falling, single point]	–
Cc1cc(C)c[n+](C(C)C(=O)c2ccc(Cl)cc2)c1 (stereo unspecified)	-11.6	–	–
Cc1cc(=O)c2ccc(Cl)cc2[nH]1	9.66	0.206 µM [rising, full curve, poor fit]	–
Cc1ccc(Nc2nc3ccccc3c(=O)s2)cc1C	-2.96	0.291 µM [falling, full curve, poor fit]	–
CCOc1cccc(C(=O)NC(=S)Nc2cccnc2)c1	96.6	18.4 µM [rising, partial curve]	3.66 µM [rising, full curve]
O=C(Nc1ccc2ccccc2c1)C(c1ccccc1)C1CCCC1 (stereo unspecified)	-18	0.0291 µM [falling, full curve, poor fit]	–
Cc1cccc(C(=O)OC2CCOC2=O)c1O (stereo unspecified)	–	0.82 µM [falling, full curve]	–
Cc1cc(C)n(CC(=O)NCCC2=CCCCC2)n1	33.3	–	32.6 µM [rising, single point]
O=C(COC(=O)CNC(=O)C1CCCCC1)Nc1ccccc1Cl	4.46	0.13 µM [falling, single point]	–
CCOC(=O)/C(C#N)=C1/SC(C)C(=O)N1c1ccc(Br)cc1 (stereo unspecified)	-19.6	25.9 µM [falling, partial curve, poor fit]	–
O=C1CCCC/C1=C/Nc1ccc2c(c1)OCO2	14.8	2.59 µM [rising, full curve]	–
O=C(CCc1nc(-c2ccccc2)no1)Nc1cc(C(F)(F)F)ccc1Cl	-23.6	29.1 µM [falling, single point]	–
Cc1cccc(NC(=O)c2cccc(S(=O)(=O)N3CCCCC3)c2)c1	19	–	–
Cn1c(=O)n(C)c2cc(S(=O)(=O)NCc3ccccc3)ccc21	-22.2	–	–
COc1ccc(-c2ccc(-c3noc(-c4cccc(OC)c4)n3)c(OC)n2)cc1	1.75	–	–
COc1ccc(OC)c(NC(=O)COc2ccc(Br)cc2)c1	24.1	29.1 µM [rising, single point]	–
CC1CN(C(=O)c2ccccc2C(=O)c2ncc[nH]2)CC(C)O1 (stereo unspecified)	-5.22	5.17 µM [falling, full curve]	1.03 µM [falling, full curve]
